Source: PubChem BioAssay AID504793 (Drosophila RNAi Screening Center, 2011)
In all, the deposit lists about 23,000 reagents; shown is a random part of those that have a named target and a result. Of all reagents, 62 (0.27%) were called active. 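Calls come from follow-up tests whose scores are not deposited, so confirmed genes may have low counts here; counts are not normalised per plate.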 The raw values are shown without normalisation. Unmarked entries are inactive. A plus sign joins genes that one reagent is predicted to hit.

- Purpose: 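Knock-downs allowing continued mitosis even though DNA is damaged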 (primary screen)
- Cell system: Drosophila S2R+ cells
- Reagent: long dsRNA against Drosophila genes, about 0.25 µg dsRNA per well
- Duration: 4 days of dsRNA, then 4 hours of drug before read-out
- Challenge: doxorubicin 0.5 µM for 4 hours to cause double-strand breaks, in cells also given a low, harmless dose of dsRNA against nbs to sensitise the assay
- Read-out: 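Per-well count of mitotic cells stained for phospho-histone H3 after doxorubicin exposure, used as mitotic index; counts are raw and not normalised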
- Scale: mitotic cells: higher = more cells in mitosis, weaker G2 arrest
- Call rule: 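a call needs confirmation in secondary tests, with other dsRNAs and a check of mitotic timing without damage, not just a high primary count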
- Meaning of the calls: active = confirmed in follow-up tests; inactive = not confirmed

predicted target | amplicon | mitotic cells, replicate 1 | mitotic cells, replicate 2
CG12914 | DRSC06229 | 4 | –
CG12325 | DRSC06130 | 5 | –
mRpS26 | DRSC10823 | 6 | –
mRpS26 | DRSC27288 | 8 | –
dyw | DRSC18228 | 12 | –
dyw | DRSC29300 | 1 | –
SNRPG | DRSC20207 | 9 | –
CG10433 | DRSC04068 | 7 | –
CG10433 | DRSC26255 | 4 | –
CG34232 | DRSC36562 | 8 | –
Sp1 | DRSC17622 | 2 | –
Sp1 | DRSC18717 | 8 | –
Sp1 | DRSC23810 | 12 | –
CG1896 | DRSC15397 | 9 | –
nAChRbeta1 | DRSC08097 | 8 | –
nAChRbeta1 | DRSC08728 | 7 | –
CG42566 | DRSC03949 | 6 | –
CG5937 | DRSC18392 | 11 | –
CG5937 | DRSC26696 | 6 | –
heca | DRSC22990 | 6 | –
heca | DRSC25796 | 4 | –
beat-IIa | DRSC14813 | 4 | –
beat-IIa | DRSC14814 | 6 | –
Calx | DRSC13457 | 4 | –
Calx | DRSC13459 | 11 | –
Calx | DRSC16599 | 9 | –
Calx | DRSC21850 | 19 | –
Calx | DRSC24386 | 10 | –
Coprox | DRSC01996 | 8 | –
Coprox | DRSC28744 | 6 | –
CG13858 (retired record) | DRSC14708 | 9 | –
CG13858 (retired record) | DRSC14709 | 12 | –
CG13858 (retired record) | DRSC14710 | 1 | –
CG13858 (retired record) | DRSC14711 | 9 | –
Nepl5 | DRSC03241 | 10 | –
Nepl5 | DRSC29153 | 5 | –
CG3419 (retired record) | DRSC04368 | 4 | –
CG3419 (retired record) | DRSC04369 | 7 | –
Neu2 | DRSC11819 | 7 | –
Neu2 | DRSC26795 | 5 | –
Dys | DRSC13364 | 5 | –
Dys | DRSC15260 | 12 | –
Dys | DRSC16218 | 7 | –
Dys | DRSC16219 | 10 | –
Dys | DRSC16220 | 7 | –
Dys | DRSC16935 | 11 | –
Dys | DRSC25148 | 5 | –
ec | DRSC18658 | 11 | –
ec | DRSC23902 | 5 | –
CG33012 | DRSC06287 | 4 | –
CG33012 | DRSC06288 | 2 | –
CG33308 | DRSC01419 | 2 | –
TfIIA-S | DRSC16883 | 16 | –
Aldh-III | DRSC06047 | 6 | –
Aldh-III | DRSC26578 | 6 | –
CR13656 | DRSC13705 | 24 | –
CR13656 | DRSC14656 | 15 | –
Ogdh | DRSC09854 | 7 | –
Ogdh | DRSC09855 | 3 | –
CG4404 | DRSC19897 | 15 | –
CG4404 | DRSC23956 | 5 | –
sa | DRSC11649 | 5 | 5
LTV1 | DRSC05951 | 5 | –
Sap30 | DRSC19916 | 11 | –
CG11085 | DRSC19374 | 8 | –
CG11085 | DRSC22832 | 8 | –
CG11085 | DRSC25203 | 5 | –
CG11590 | DRSC19411 | 9 | –
CG11590 | DRSC28405 | 7 | –
CG6790 | DRSC16117 | 2 | –
CheB42b | DRSC22878 | 8 | –
Gli | DRSC03332 | 5 | –
obst-J | DRSC10821 | 5 | –
obst-J | DRSC28354 | 6 | –
CG13577 | DRSC04213 | 2 | –
PIG-U | DRSC02193 | 11 | –
PIG-U | DRSC28900 | 3 | –
Mgat1 | DRSC07463 | 10 | –
CG31717 | DRSC01121 | 11 | –
CG8945 | DRSC20129 | 9 | –
Notum | DRSC09959 | 7 | –
Cln7 | DRSC11005 | 10 | –
CG8765 | DRSC23043 | 16 | –
CG8765 | DRSC26371 | 8 | –
CG9040 | DRSC11053 | 8 | –
CG14717 | DRSC14940 | 2 | –
CG9632 | DRSC16528 | 4 | –
Polr2C | DRSC03415 | 12 | –
Polr2C | DRSC23584 | 23 | –
CG42676 | DRSC08392 | 1 | –
CG42676 | DRSC23487 | 6 | –
Rrp40 | DRSC00074 | 10 | –
daed | DRSC00299 | 7 | –
SF1 | DRSC16844 | 15 | –
mrva | DRSC11009 | 13 | –
mrva | DRSC21842 | 12 | –
mrva | DRSC25508 | 9 | –
Pka-R1 | DRSC11674 | 5 | –
Pka-R1 | DRSC11875 | 4 | –
Pka-R1 | DRSC25205 | 6 | –
Ttc7 | DRSC04836 | 3 | –
lms | DRSC06387 | 5 | –
lms | DRSC27541 | 2 | –
l(2)10685 | DRSC00665 | 6 | –
l(2)10685 | DRSC27739 | 5 | –
Jabba | DRSC06521 | 5 | –
CG11664 | DRSC18650 | 14 | –
Ilp8 | DRSC10076 | 4 | –
BomBc1 | DRSC06501 | 13 | –
BomBc1 | DRSC23723 | 11 | –
CG33459 | DRSC05615 | 4 | –
CG13856 | DRSC14706 | 6 | –
Adh + Adhr | DRSC01862 | 14 | –
Adh + Adhr | DRSC01863 | 14 | –
CG9536 | DRSC03254 | 3 | –
CG9536 | DRSC24736 | 6 | –
CG7220 | DRSC05235 | 5 | –
CG7220 | DRSC07018 | 9 | –
CG7220 | DRSC26138 | 8 | –
CG13108 | DRSC02206 | 4 | –
CG2218 | DRSC15428 | 8 | –
CG2218 | DRSC28089 | 7 | –
CG30472 | DRSC22245 | 11 | –
CG30472 | DRSC26789 | 4 | –
shd | DRSC11129 | 3 | –
CG9689 | DRSC18440 | 2 | –
CG9689 | DRSC28305 | 5 | –
CG8079 | DRSC07070 | 1 | –
CG8079 | DRSC07071 | 4 | –
Chd3 | DRSC11114 | 12 | –
Chd3 | DRSC23701 | 5 | –
synr | DRSC02369 | 10 | –
CG6664 | DRSC10690 | 5 | –
CG6664 | DRSC25430 | 7 | –
CG32599 | DRSC19433 | 5 | –
CG32599 | DRSC26978 | 6 | –
mdlc | DRSC15690 | 11 | –
mdlc | DRSC28632 | 3 | –
nur | DRSC01342 | 4 | –
nur | DRSC29629 | 6 | –

Only “mitotic cells, replicate 1” (15 entries from above):
Calx [DRSC13459]: 11
Calx [DRSC16599]: 9
Calx [DRSC21850]: 19
Calx [DRSC24386]: 10
Coprox [DRSC01996]: 8
Coprox [DRSC28744]: 6
CG13858 (retired record) [DRSC14708]: 9
CG13858 (retired record) [DRSC14709]: 12
CG13858 (retired record) [DRSC14710]: 1
CG13858 (retired record) [DRSC14711]: 9
Nepl5 [DRSC03241]: 10
Nepl5 [DRSC29153]: 5
CG3419 (retired record) [DRSC04368]: 4
CG3419 (retired record) [DRSC04369]: 7
Neu2 [DRSC11819]: 7
